Experimental data from PubChem BioAssay AID1487 (National Center for Advancing Translational Sciences (NCATS), 2009).
The list shows a part of the results. These are further read-outs of the screen, such as a control signal, another cell line or another target. No call is given for them. Most of these compounds were active or inconclusive in the main read-out, so they are no random draw. Words in brackets tell the shape of the fitted curve; partial curves, single points and poor fits give uncertain potencies.

Test: qHTS Assay for Modulators of Lamin A Splicing
Conditions: HeLa LMNA splicing GFP/RFP minigene ratio, 48 h
Procedure, shortened: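 S3 HeLa stable clones carrying a lamin A-EGFP splicing minigene plus DsRed2 were seeded at 600 cells/well in Opti-MEM with 2% FBS, pin-dosed and incubated 48 h at 37°C. Acumen cytometry (488 nm) gave the GFP/RFP total-intensity ratio.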

[1] = measured here: GFP splicing reporter channel
[2] = measured here: RFP viability control channel

SMILES | AC50 [1] | AC50 [2]
Cc1ccc2nc(-c3ccc(NS(C)(=O)=O)cc3)cc(-c3ccccc3)c2c1 | 35.5 µM [falling, single point] | 25.1 µM [falling, single point]
Cc1ccc(Sc2ccncc2S(N)(=O)=O)cc1 | 7.94 µM [rising, partial curve, poor fit] | 14.1 µM [rising, partial curve, poor fit]
COc1cccc(-c2cc(C(=O)NCCCn3ccnc3)no2)c1 |  | 17.8 µM [rising, single point]
COc1cc(/C=C/C(=O)N2C(=O)c3cccc(N)c3C2=O)cc(OC)c1OC | 3.16 µM [falling, single point] | 
CCN(CC)S(=O)(=O)c1cc(C(=O)Nc2ccc(Cl)cn2)ccc1C |  | 35.5 µM [rising, single point]
O=C1CSC2(C(=O)N(Cc3cccc(C(F)(F)F)c3)c3ccccc32)N1c1ccc(F)c(F)c1 (stereo not drawn) |  | 0.178 µM [falling, full curve, poor fit]
Cc1ccc(CNC(=O)Cn2ccn(-c3cccc(Cl)c3)c(=O)c2=O)cc1 |  | 1.26 µM [rising, full curve, poor fit]
O=C1Nc2ccccc2/C1=N/c1sc2c(c1C(=O)NCCc1ccccc1)CCCC2 | 11.2 µM [falling, partial curve, poor fit] | 
CCc1ccccc1NC(=O)CN(C)C(=O)CSc1nnc(Nc2cccc(C)c2C)s1 | 35.5 µM [rising, single point] | 25.1 µM [rising, single point]
COc1ccc(-n2c(C)cc(C(=O)CN3C(=O)C(=O)N(Cc4ccccc4)C3=O)c2C)cc1 | 0.0141 µM [rising, full curve, poor fit] | 14.1 µM [rising, partial curve]
COc1c(Br)cc(Br)cc1/C=N/NC(=O)c1ccncc1 | 0.02 µM [rising, full curve, poor fit] | 
Cc1c(C(=O)N/N=C/c2ccccc2)[nH]c2ccc(Cl)cc12 |  | 3.55 µM [rising, full curve]
CCOc1cccc(NCc2cc3c(C(C)(C)C)nn(-c4ccccc4)c3[nH]c2=O)c1 | 14.1 µM [rising, single point] | 14.1 µM [rising, single point]
CCCCSCCCNC(=O)CS(=O)Cc1nc(-c2cccc(C)c2)oc1C (stereo not drawn) |  | 35.5 µM [rising, single point]
Cc1ccsc1C(=O)Nc1nnc(-c2ccco2)o1 |  | 8.91 µM [rising, partial curve, poor fit]
COC(=O)c1sccc1NC(=O)c1c(-c2ccccc2)noc1C | 35.5 µM [rising, single point] | 35.5 µM [rising, single point]
O=C1C2C3C=CC(C3)C2C(=O)N1c1ccc(-c2nc3ccccc3c(=O)o2)cc1 (stereo not drawn) | 2.24 µM [falling, full curve, poor fit] | 
COc1cc(/C=C(\C#N)c2nnc(N3CCOCC3)n2-c2ccccc2)ccc1O |  | 17.8 µM [rising, single point]
S=C(Nc1ccc2nsnc2c1)NC1CCCCC1 |  | 35.5 µM [rising, single point]

Shown as labelled records: part of the list above
COC(=O)c1sccc1NC(=O)c1c(-c2ccccc2)noc1C
  AC50 [1]: 35.5 µM [rising, single point]; AC50 [2]: 35.5 µM [rising, single point]
O=C1C2C3C=CC(C3)C2C(=O)N1c1ccc(-c2nc3ccccc3c(=O)o2)cc1 (stereo not drawn)
  AC50 [1]: 2.24 µM [falling, full curve, poor fit]
COc1cc(/C=C(\C#N)c2nnc(N3CCOCC3)n2-c2ccccc2)ccc1O
  AC50 [2]: 17.8 µM [rising, single point]
S=C(Nc1ccc2nsnc2c1)NC1CCCCC1
  AC50 [2]: 35.5 µM [rising, single point]

Further structures follow.

SMILES | AC50 [1] | AC50 [2]
O=C(Nc1ccc(Cl)cc1)NC1CCCC1Cc1ccco1 (stereo not drawn) |  | 35.5 µM [rising, single point]
Cn1c(=O)c2c(nc(N/N=C/c3cccs3)n2Cc2ccccc2)n(C)c1=O |  | 0.00447 µM [rising, full curve, poor fit]
CCOC(=O)CSc1nc2cc3c(cc2cc1C)OCO3 |  | 0.0398 µM [falling, full curve]
O=C(Nc1ccccc1NC(=O)c1c(F)c(F)c(F)c(F)c1F)c1c(F)c(F)c(F)c(F)c1F |  | 35.5 µM [falling, single point]
CCCCN1Cc2cc(C(=O)c3cc(OC)ccc3O)cnc2NC1=O | 11.2 µM [rising, partial curve] | 12.6 µM [rising, partial curve, poor fit]
Cc1cccc(N2CCN(C(=O)/C=C/c3cccs3)CC2)c1C | 15.8 µM [rising, single point] | 31.6 µM [rising, single point]
CC(O)[C@@H](O)[C@H]1CNc2nc(N)[nH]c(=O)c2N1 (stereo partly drawn) | 0.00501 µM [falling, full curve, poor fit] | 
COc1ccc2nc(NC(=O)CSc3nc4cccnc4n3C)sc2c1 | 1 µM [rising, full curve, poor fit] | 
CC(=O)NC(c1cccs1)c1cc([N+](=O)[O-])c2cccnc2c1O (stereo not drawn) |  | 11.2 µM [rising, partial curve]
O=C1CC(N2CCC(O)(c3ccc(Cl)cc3)CC2)C(=O)N1Cc1ccc(N2CCCC2=O)cc1 (stereo not drawn) | 35.5 µM [rising, single point] | 31.6 µM [rising, single point]
CC(C)C[C@H](NC(=O)NCc1ccc(Cl)cc1)C(=O)O | 0.447 µM [rising, partial curve] | 0.355 µM [rising, partial curve]
Cc1cccc(C(=O)NC2CCN(CC(=O)Nc3ccc4c(c3)OCO4)CC2)c1 | 0.141 µM [rising, full curve] | 
COc1ccc(-c2cn3cccnc3n2)cc1NC(=O)c1cc(OC)c(OC)c(OC)c1 | 28.2 µM [falling, partial curve] | 
Cc1cc(Nc2ccc(F)cc2F)nc(-n2nc(C)cc2C)n1 | 0.0251 µM [rising, full curve, poor fit] | 
Cc1ccc(S(=O)(=O)Nc2ccc(Cl)cc2C(=O)c2ccccc2)cc1 |  | 25.1 µM [rising, single point]
O=C(CSc1nc(=O)n(CCN2CCOCC2)c2c1CCC2)Nc1ccc(Cl)c(Cl)c1 | 12.6 µM [falling, partial curve] | 
CC(=O)N1CCN(c2ccccc2NC(=O)COc2cc(C)ccc2C(C)C)CC1 |  | 31.6 µM [rising, single point]
CCc1ccc(CN(C)CC(=O)Nc2sccc2C#N)cc1 |  | 35.5 µM [rising, single point]
Cc1cc(C)cc(NS(=O)(=O)c2ccc(NC(=S)Nc3ccccc3)cc2)c1 |  | 14.1 µM [rising, single point]

SMILES | AC50 [1] | AC50 [2]
Cc1sc2ncnc(SCC(=O)c3ccc4c(c3)OCCO4)c2c1-c1ccccc1 | 2 µM [rising, full curve, poor fit] | 3.16 µM [rising, full curve]
Cc1ccc(NS(=O)(=O)c2ccc(NC(=O)CN(c3cc([N+](=O)[O-])ccc3C)S(C)(=O)=O)cc2)c(C)c1 | 35.5 µM [falling, single point] | 35.5 µM [falling, single point]
COc1ccc(/C=N/NC(=O)CN(C2=NS(=O)(=O)c3ccccc32)c2ccccc2)cc1OC | 11.2 µM [rising, partial curve, poor fit] | 14.1 µM [rising, partial curve, poor fit]
CCCCOc1ccc(CSc2ncn[nH]2)cc1 | 15.8 µM [rising, partial curve] | 35.5 µM [rising, single point]
Cc1c(C(=O)NCC2COc3ccccc3O2)oc2ccc(S(=O)(=O)N3CCOCC3)cc12 (stereo not drawn) |  | 10 µM [rising, partial curve, poor fit]
CCOC(=O)CC(NC(=O)c1cc2ccccc2oc1=O)c1cccc([N+](=O)[O-])c1 (stereo not drawn) |  | 0.562 µM [rising, full curve, poor fit]
Cc1ccc(Cn2nc(C)c(NC(=O)c3noc4c3CCCCC4)c2C)cc1 |  | 10 µM [rising, partial curve]
Cc1cc(NS(=O)(=O)c2ccc(Nc3nc(-c4ccc(C)c(C)c4)cs3)cc2)no1 |  | 35.5 µM [rising, single point]
CC(C)(C)N(Cc1ccccc1)C(=O)c1ccc(Br)o1 |  | 3.55 µM [falling, partial curve, poor fit]
Clc1cc(Br)ccc1OCCCn1ccnc1 |  | 25.1 µM [rising, single point]
COc1ccc(Cc2nnc(N)s2)cc1 | 35.5 µM [falling, single point] | 35.5 µM [falling, single point]
COc1ccc(NC(=O)c2cc3cc(C)ccc3[nH]2)cc1 | 1.41 µM [rising, partial curve] | 
CC1=C(C#N)C(=O)NC(=O)/C1=C/c1ccc(-c2ccc(S(N)(=O)=O)cc2)o1 | 0.794 µM [falling, single point] | 
CCCCCc1nnc(NC(=O)c2ccc(=O)n(C)n2)s1 | 6.31 µM [rising, partial curve] | 0.00316 µM [rising, full curve, poor fit]
O=C1c2ccccc2C(=O)N1c1ccc(S(=O)(=O)N2CCN(c3ccccc3)CC2)cc1 |  | 0.0178 µM [falling, full curve, poor fit]
Cc1[nH]nc(Sc2ccccn2)c1[N+](=O)[O-] | 0.398 µM [falling, full curve, poor fit] | 0.891 µM [falling, full curve]
CSc1ccccc1-c1nnc(NC(=O)c2ccc3c(c2)OCCO3)o1 |  | 5.01 µM [rising, partial curve]
Cc1c(C(=O)N2CCCCCC2)c(S(=O)(=O)NCc2ccccc2)c(C)n1C | 0.0708 µM [falling, full curve, poor fit] | 
